According to patent publication US20020037531A1, “Expression cloning of protein targets for phospholipids” (priority 1999, published 2002):
Some results were stated once for a whole list of compounds, not compound by compound.

The chains behind the UniProt entries cited, without tags or fusion partners. Residues count along the entry.
UniProt P31750, 1-130: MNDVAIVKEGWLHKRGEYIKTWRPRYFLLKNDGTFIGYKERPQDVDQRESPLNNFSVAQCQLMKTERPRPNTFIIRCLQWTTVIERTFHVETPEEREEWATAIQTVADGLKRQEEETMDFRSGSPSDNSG

Molecular target: MBP-Akt PH fusion protein (Mus musculus, UniProt P31750)
Experiment: Competition binding of non-biotinylated lipids against biotinylated PtdIns-3,4,5-P3 on avidin beads
Settings: unbiotinylated lipid competing for biotinylated PtdIns-3,4,5-P3 binding; relative to PtdIns-4,5-P2; FIG. 2C

Substance: phosphatidylinositol-3,4-bisphosphate [PtdIns-3,4-P2]
- concentration displacing biotinylated PtdIns-3,4,5-P3, fold lower than PtdIns-4,5-P2: 1000 to 10,000 fold
